Reference: article PMC11939259, “Antiparasitic and Antifungal Activities of Cetyl-Maritima, a New N-Cetyl-Modified Maritima Derivative” (Antibiotics, 2025)

System: M. mycetomatis fungal strain MM55
Test: M. mycetomatis MM55 in vitro susceptibility, MTS metabolic activity
Format: cell-based, Madurella mycetomatis
Procedure: The M. mycetomatis MM55 isolate obtained from a patient and identified and maintained in the Erasmus Medical Centre, Rotterdam, The Netherlands, was applied for the investigation of the in vitro susceptibility of the test compounds as reported previously. In short, the fungal isolate was cultured on Sabouraud agar for 2 weeks at 37 °C, after which the mycelium was transferred in colorless RPMI 1640 medium supplemented with L-glutamine (0.3 g/L; Capricorn-Scientific, Ebsdorfergrund, Germany), morpholinepropanesulfonic acid (MOPS, 20 mM, Sigma, St. Louis, MO, USA), and chloramphenicol (100 mg/L, Oxoid, Basingstroke, UK). […] Pharmacia Biotech, Uppsala, Sweden). Then, 100 μL of the suspension was added to each well of a 96-wells plate (Costar 3799, Fisher Scientific, Breda, The Netherlands) that contained 1 μL of each compound sample. […] The following formula was used: […] The negative control (NC) is medium only and 0% metabolic activity was noted.

## CCCCCCCCCCCCCCCC[n+]1ccccc1 [CPBr, Cetylpyridinium bromide]
25 μM, ± SD
  Metabolic activity upon treatment at 25 μM: 7.9 ± 1.5%
100 μM, ± SD
  Metabolic activity upon treatment at 100 μM: 4.0 ± 0.8%
Madurella mycetomatis
  IC50: 16 µM
